From the supplement of paper PMC7666118
Some of the results follow.

Sequences of proteins named here, by UniProt entry; tags and fusion partners are left off. A change or cut given only in a name is not applied to a line headed by its entry.
UniProt Q6UW68: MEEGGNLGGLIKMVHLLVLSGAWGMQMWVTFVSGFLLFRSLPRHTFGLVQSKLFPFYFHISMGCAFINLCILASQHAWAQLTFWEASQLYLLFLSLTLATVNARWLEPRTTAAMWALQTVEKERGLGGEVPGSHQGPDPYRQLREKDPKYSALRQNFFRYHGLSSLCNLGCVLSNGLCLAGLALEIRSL
UniProt Q9BVK6: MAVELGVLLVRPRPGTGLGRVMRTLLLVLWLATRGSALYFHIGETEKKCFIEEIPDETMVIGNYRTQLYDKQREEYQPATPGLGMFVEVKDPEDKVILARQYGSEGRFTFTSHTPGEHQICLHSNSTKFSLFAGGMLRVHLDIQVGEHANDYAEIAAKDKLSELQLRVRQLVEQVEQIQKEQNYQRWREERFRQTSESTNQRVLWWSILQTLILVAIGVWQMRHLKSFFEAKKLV
UniProt Q8IWR1: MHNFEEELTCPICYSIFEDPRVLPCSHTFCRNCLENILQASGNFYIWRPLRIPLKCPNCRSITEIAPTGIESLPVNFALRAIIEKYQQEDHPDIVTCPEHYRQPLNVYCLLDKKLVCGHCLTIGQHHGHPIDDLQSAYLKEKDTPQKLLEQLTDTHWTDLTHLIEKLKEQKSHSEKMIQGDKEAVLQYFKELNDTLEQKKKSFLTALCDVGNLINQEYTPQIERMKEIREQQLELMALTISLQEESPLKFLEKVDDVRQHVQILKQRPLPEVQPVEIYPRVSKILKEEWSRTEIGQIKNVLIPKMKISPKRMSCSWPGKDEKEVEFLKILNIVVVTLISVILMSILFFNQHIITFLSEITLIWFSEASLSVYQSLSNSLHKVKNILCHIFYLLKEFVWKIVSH
UniProt Q86XT9, whole entry: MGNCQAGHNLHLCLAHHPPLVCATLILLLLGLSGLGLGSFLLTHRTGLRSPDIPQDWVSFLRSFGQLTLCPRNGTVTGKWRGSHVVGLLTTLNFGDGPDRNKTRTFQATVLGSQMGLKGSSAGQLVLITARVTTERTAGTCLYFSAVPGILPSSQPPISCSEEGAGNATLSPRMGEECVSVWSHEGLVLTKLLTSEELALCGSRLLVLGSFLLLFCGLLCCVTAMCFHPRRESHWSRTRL
UniProt Q86UE8, whole entry, looked up: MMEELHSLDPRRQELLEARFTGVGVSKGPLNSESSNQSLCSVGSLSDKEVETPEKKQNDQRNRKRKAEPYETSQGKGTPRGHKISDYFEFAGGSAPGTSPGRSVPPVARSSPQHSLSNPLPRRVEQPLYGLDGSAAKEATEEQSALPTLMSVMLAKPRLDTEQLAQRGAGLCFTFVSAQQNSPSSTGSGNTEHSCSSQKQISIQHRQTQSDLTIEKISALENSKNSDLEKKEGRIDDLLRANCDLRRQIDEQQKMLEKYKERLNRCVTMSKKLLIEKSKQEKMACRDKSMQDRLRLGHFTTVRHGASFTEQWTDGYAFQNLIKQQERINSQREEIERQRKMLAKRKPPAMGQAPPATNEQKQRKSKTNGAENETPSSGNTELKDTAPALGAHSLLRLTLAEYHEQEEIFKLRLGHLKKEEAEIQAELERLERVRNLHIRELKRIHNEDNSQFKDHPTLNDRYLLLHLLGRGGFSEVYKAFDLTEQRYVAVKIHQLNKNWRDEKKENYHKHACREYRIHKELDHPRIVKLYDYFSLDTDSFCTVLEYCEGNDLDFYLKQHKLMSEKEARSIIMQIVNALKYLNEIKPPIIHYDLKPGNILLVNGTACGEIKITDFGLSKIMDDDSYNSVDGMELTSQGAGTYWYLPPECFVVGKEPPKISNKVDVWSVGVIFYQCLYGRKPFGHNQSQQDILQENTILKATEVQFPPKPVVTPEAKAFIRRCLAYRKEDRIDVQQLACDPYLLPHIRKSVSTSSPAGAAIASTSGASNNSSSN
UniProt Q96I45: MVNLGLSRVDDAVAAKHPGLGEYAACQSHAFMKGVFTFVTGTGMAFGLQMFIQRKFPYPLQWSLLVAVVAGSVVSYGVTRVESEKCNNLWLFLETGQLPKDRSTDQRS
UniProt O43615: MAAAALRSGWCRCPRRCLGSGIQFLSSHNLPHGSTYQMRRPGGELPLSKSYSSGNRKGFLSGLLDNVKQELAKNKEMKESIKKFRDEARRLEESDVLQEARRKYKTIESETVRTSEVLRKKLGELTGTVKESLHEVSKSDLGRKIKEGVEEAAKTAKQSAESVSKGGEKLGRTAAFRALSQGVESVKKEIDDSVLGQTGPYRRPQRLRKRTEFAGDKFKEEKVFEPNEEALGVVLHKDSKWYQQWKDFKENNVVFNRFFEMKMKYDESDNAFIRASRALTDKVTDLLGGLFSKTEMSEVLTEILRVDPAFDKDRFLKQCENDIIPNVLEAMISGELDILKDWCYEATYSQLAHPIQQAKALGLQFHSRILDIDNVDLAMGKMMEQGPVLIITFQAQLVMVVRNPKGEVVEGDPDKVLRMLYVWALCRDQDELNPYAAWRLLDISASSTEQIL
UniProt Q8IUX1: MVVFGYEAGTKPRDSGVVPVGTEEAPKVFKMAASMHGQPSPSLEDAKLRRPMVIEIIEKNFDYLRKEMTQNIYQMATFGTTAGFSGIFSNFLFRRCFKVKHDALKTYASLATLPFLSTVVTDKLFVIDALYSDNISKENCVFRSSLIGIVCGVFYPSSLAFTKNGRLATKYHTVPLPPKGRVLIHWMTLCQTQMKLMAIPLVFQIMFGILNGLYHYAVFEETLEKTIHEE
UniProt P82094: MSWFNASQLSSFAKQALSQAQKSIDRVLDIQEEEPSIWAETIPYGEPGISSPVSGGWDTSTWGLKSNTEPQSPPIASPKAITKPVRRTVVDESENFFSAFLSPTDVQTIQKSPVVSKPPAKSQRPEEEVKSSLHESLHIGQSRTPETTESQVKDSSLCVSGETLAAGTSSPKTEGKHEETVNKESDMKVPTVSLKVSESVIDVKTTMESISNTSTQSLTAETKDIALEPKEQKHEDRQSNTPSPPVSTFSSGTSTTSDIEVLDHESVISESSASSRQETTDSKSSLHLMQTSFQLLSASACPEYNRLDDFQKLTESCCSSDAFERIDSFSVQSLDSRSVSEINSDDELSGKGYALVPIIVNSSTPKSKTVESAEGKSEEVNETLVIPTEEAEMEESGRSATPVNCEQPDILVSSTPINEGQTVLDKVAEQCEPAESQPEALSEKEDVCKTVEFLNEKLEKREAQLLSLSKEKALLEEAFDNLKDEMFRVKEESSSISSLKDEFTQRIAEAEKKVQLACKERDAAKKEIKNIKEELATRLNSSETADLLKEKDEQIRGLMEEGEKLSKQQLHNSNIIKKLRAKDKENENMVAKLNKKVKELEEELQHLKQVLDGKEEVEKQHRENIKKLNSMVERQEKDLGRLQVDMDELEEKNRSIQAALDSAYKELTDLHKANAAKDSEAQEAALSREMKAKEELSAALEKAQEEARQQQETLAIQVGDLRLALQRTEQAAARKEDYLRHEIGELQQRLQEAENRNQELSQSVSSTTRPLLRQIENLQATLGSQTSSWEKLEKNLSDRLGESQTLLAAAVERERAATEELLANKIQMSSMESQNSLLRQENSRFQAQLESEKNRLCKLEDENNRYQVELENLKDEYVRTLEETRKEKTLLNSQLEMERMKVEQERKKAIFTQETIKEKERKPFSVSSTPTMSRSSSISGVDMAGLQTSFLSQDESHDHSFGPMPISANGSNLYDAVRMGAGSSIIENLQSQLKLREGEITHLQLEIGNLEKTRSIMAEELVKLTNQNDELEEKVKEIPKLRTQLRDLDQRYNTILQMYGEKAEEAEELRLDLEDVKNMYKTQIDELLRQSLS
UniProt Q96QT4: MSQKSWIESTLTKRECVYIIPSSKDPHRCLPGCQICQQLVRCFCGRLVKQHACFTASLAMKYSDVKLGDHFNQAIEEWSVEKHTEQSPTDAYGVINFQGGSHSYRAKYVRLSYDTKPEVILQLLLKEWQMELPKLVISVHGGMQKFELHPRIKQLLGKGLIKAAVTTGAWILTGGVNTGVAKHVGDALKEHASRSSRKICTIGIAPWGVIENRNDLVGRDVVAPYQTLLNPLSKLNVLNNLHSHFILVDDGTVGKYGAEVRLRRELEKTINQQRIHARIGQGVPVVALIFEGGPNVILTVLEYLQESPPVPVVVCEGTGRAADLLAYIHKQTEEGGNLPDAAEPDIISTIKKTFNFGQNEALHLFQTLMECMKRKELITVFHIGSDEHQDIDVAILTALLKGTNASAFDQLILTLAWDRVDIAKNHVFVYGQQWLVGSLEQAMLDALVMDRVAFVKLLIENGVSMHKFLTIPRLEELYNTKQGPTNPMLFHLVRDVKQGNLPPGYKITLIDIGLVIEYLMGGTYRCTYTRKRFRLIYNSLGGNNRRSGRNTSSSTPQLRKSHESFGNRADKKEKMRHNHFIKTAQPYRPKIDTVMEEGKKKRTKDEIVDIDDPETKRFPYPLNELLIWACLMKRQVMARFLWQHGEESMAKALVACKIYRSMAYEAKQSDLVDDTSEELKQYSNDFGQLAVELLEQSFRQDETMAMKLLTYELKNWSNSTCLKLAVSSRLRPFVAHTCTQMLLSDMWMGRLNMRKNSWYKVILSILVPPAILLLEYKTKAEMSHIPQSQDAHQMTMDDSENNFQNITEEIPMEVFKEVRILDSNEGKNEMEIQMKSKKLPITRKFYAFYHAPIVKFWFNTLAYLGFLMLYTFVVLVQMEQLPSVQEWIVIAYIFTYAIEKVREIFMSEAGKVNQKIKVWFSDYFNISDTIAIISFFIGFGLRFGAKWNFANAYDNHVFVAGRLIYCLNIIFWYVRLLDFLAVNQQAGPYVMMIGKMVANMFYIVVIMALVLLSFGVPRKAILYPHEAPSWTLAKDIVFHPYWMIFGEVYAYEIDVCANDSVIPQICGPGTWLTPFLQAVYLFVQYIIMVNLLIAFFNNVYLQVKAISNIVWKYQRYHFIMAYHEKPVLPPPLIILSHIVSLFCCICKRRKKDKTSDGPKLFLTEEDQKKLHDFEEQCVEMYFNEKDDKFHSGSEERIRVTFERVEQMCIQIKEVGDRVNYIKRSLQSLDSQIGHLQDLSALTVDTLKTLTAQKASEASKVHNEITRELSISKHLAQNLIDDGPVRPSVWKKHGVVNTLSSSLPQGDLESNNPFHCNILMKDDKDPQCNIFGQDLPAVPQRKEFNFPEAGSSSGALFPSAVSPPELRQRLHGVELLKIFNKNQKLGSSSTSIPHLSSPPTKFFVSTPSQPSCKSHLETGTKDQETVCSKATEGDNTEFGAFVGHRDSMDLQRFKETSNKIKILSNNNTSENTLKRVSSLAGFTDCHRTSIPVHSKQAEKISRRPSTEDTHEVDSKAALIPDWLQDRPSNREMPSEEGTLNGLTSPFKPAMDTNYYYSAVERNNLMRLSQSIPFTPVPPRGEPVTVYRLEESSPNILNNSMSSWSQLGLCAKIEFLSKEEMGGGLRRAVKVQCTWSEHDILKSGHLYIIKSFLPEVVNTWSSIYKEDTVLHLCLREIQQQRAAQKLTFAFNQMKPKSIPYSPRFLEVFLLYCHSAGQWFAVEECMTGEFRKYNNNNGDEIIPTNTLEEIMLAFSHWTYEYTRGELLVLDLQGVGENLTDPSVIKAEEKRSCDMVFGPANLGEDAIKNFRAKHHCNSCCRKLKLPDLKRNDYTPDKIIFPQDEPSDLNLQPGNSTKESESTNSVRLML
UniProt Q96HV5: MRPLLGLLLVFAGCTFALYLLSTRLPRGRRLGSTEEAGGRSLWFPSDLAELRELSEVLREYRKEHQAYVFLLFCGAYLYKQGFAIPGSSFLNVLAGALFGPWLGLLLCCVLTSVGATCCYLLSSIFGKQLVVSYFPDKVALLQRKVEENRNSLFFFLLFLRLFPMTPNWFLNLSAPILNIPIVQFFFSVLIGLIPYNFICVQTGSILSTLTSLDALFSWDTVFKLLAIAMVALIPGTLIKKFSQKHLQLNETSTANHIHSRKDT
UniProt Q6DKK2: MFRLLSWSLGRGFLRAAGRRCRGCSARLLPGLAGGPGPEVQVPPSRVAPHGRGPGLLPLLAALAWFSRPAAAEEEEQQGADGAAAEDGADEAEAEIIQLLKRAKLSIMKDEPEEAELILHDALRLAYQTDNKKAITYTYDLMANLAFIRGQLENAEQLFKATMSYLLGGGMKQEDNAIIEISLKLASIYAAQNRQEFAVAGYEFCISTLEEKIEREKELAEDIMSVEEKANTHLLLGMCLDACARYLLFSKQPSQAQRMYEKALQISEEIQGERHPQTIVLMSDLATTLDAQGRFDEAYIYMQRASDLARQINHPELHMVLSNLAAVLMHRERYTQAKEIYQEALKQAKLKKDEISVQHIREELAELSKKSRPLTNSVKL
UniProt Q53FA7: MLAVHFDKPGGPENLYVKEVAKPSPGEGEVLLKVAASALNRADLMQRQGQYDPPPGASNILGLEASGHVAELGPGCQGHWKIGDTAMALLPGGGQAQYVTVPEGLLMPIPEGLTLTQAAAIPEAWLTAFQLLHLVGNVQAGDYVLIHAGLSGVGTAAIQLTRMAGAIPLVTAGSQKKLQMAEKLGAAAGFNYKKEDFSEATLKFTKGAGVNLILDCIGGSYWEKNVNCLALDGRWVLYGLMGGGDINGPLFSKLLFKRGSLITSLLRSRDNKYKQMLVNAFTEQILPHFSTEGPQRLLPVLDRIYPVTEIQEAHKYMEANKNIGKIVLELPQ

Compound: COc1ccc(Cn2ccc3cc(C)c(C(=O)NO)cc32)cc1
Test: dose-dependent thermal stabilisation call (2D-TPP, DLPTP, 10% FDR) (binary (1 = stabilised)); higher = stabilised by the compound
Details: system: HL-60 intact cells; concentration range 0.04-10 µM
Description: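 2D thermal proteome profiling in intact HL-60 cells treated with BRD-3811 (0, 0.04, 0.29, 2, 10 uM) for 90 min at 37 C, then heated 3 min at one of 12 temperatures (42-63.9 C). Soluble protein was quantified by TMT10 MS. The value is the DLPTP call of the paper: dose-dependent thermal stabilisation over all temperatures at 10% FDR (F-test of a dose-response against a flat model); one experiment, one call per tested protein.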

| Target | dose-dependent thermal stabilisation call |
| --- | --- |
| TSNAX (UniProt Q99598) | inactive: 0 |
| TMEM205 (UniProt Q6UW68) | inactive: 0 |
| THG1L (UniProt Q9NWX6) | inactive: 0 |
| TMED9 (UniProt Q9BVK6) | inactive: 0 |
| TRIM59 (UniProt Q8IWR1) | inactive: 0 |
| TMEM222 (UniProt Q9H0R3) | inactive: 0 |
| TMEM38B (UniProt Q9NVV0) | inactive: 0 |
| TSSC4 (UniProt Q9Y5U2) | inactive: 0 |
| TMED2 (UniProt Q15363) | inactive: 0 |
| TMEM219 (UniProt Q86XT9) | inactive: 0 |
| TLK2 (UniProt Q86UE8) | inactive: 0 |
| TMEM141 (UniProt Q96I45) | inactive: 0 |
| TIMM44 (UniProt O43615) | inactive: 0 |
| TIMM17B (UniProt O60830) | inactive: 0 |
| TMEM126B (UniProt Q8IUX1) | inactive: 0 |
| TRABD (UniProt Q9H4I3) | inactive: 0 |
| THOC4 (UniProt Q86V81) | inactive: 0 |
| TMF1 (UniProt P82094) | inactive: 0 |

| Target | dose-dependent thermal stabilisation call |
| --- | --- |
| TMEM49 (UniProt Q96GC9) | inactive: 0 |
| TRIM5 (UniProt Q9C035) | inactive: 0 |
| TMCC1 (UniProt O94876) | inactive: 0 |
| TNFRSF1A (UniProt P19438) | inactive: 0 |
| TRPM7 (UniProt Q96QT4) | inactive: 0 |
| THOC5 (UniProt Q13769) | inactive: 0 |
| TSC2 (UniProt P49815) | inactive: 0 |
| TMEM41A (UniProt Q96HV5) | inactive: 0 |
| TRIP11 (UniProt Q15643) | inactive: 0 |
| TMEM57 (UniProt Q8N5G2) | inactive: 0 |
| TIPRL (UniProt O75663) | inactive: 0 |
| TSEN2 (UniProt Q8NCE0) | inactive: 0 |
| TOR1AIP2 | inactive: 0 |
| TTC19 (UniProt Q6DKK2) | inactive: 0 |
| TMEM165 (UniProt Q9HC07) | inactive: 0 |
| TP53I3 (UniProt Q53FA7) | inactive: 0 |
| TMEM65 (UniProt Q6PI78) | inactive: 0 |
| TMEM59 (UniProt Q9BXS4) | inactive: 0 |

Reformatted: results already given
TSC2 (UniProt P49815)
  dose-dependent thermal stabilisation call: inactive: 0
TMEM41A (UniProt Q96HV5)
  dose-dependent thermal stabilisation call: inactive: 0
